From article PMC3584136
Results are given in words; binding and its absence hold for the method and conditions named. In cells and extracts the contact can be indirect. Some results given as binding are weak or reduced against the parent protein; the word gives no strength.

Sequences of proteins named here, by UniProt entry; tags and fusion partners are left off.
UniProt O35433: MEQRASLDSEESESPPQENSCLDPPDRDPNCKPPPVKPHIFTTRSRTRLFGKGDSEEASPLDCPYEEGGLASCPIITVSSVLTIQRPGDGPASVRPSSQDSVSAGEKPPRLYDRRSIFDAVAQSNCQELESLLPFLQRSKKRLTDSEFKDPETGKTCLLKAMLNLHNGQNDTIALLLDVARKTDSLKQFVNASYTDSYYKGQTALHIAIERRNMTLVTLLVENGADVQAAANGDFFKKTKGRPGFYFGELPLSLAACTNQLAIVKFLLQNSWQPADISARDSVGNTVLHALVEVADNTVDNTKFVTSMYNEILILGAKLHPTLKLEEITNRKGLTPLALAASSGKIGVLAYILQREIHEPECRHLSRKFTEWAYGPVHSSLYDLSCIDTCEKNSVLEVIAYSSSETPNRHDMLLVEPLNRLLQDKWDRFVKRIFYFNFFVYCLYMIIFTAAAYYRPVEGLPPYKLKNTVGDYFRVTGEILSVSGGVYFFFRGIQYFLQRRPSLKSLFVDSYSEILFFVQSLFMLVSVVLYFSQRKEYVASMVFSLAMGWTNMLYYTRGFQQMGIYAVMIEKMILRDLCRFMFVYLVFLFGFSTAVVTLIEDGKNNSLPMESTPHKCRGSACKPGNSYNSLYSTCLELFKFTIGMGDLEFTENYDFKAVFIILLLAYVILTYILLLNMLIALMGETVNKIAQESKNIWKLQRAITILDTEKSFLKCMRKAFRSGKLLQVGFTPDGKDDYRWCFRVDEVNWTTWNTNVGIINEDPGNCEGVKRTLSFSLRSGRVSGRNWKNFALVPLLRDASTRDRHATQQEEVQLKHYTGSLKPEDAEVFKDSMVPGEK
UniProt P0DMW0: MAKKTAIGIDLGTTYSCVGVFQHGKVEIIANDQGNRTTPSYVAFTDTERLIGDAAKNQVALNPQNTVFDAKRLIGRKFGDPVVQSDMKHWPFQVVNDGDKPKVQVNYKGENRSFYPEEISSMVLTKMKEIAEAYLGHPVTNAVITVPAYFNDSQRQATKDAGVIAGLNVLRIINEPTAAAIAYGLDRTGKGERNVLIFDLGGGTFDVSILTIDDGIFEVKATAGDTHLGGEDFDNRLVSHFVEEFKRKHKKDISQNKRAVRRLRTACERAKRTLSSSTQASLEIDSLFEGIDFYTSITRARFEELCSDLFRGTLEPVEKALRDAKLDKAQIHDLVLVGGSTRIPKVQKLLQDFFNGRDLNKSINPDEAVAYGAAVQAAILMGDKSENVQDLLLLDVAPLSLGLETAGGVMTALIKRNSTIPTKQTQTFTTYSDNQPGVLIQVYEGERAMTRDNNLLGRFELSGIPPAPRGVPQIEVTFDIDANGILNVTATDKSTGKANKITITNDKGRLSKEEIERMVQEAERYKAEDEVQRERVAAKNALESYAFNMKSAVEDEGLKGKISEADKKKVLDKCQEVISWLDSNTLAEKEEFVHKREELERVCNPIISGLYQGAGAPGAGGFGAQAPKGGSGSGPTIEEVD

Target: transient receptor potential vanilloid type-1 (TRPV1) (rat (endogenous in lung)) (UniProt O35433)
Assay: co-IP; 100 ug of lung homogenate of rats treated in vivo with the adenoviral vector over-expressing Hsp70; precipitated with rabbit polyclonal anti-TRPV1 (1:100) overnight at 4°C, protein A/G beads; immunoblot for TRPV1 and Hsp70

binding: binds
Substance: Hsp70 (from UniProt P0DMW0 1-641)
